Measurements published in PubChem BioAssay AID330 (DTP/NCI, 2004).
The list is a part of this screen's results and no random one: it is rich in T/C values a quarter to a half above the control, in often repeated tests (any T/C) and in doses without a T/C. Further doses and runs are listed elsewhere. T/C is the treated group as % of the vehicle group. Some doses have a count of surviving animals in place of a T/C: the source holds a T/C of zero for them, seemingly a mark for toxic or unscored doses. Some doses without a T/C left all or most animals alive at the check, yet need not have been tolerated: the source hardly ever lists a survival T/C far under the control, and the zero likely stands for such cases as well. Survivors were counted at the toxicity check, usually on the fifth day, unless a day is given; later deaths do not show. Schedules are NCI's codes, read here as Q, the interval in days (D) or hours (H), X, the number of doses. Some molecules as drawn cover several salts, stereoisomers or complexes of the source; a dose is that of the sample tested. Some doses were run more than once; the values are given in rising order. Brackets with × say how often a value occurs here. Where survival is the endpoint, this PubChem deposit counts one and a half times the control or more as active, and values a quarter to a half above the control carry no call in these data; other NCI protocols may use other cut-offs. Some T/C values are followed by the survivors on the day toxicity was checked, most often the fifth; where none is given, no animal had died by that day.

Tested on: P388 leukemia ip, CD2F1 mice, survival T/C
Experiment: NCI In Vivo Anticancer Drug Screen. Data for tumor model P388 Leukemia (intraperitoneal) in CD2F1 (CDF1) mice
Conditions: T/C endpoint: median survival time, higher T/C = longer survival
[1] = dose: 0.35 mg/kg/injection, schedule: Q01DX009 (ip), vehicle: water
[2] = dose: 0.4 mg/kg/injection, schedule: Q01DX009 (ip), vehicle: water
[3] = dose: 0.65 mg/kg/injection, schedule: Q01DX009 (ip), vehicle: water
[4] = dose: 1.0 mg/kg/injection, schedule: Q01DX005 (ip), vehicle: saline
[5] = dose: 1.0 mg/kg/injection, schedule: Q01DX009 (ip), vehicle: water

SMILES: CO[C@H](C(=O)[C@@H](O)[C@@H](C)O)[C@@H]1Cc2cc3cc(OC4CC(OC5CC(O)C(O)C(C)O5)C(O)C(C)O4)c(C)c(O)c3c(O)c2C(=O)[C@H]1OC1CC(OC2CC(OC3CC(C)(O)C(O)C(C)O3)C(O)C(C)O2)C(O)C(C)O1 (stereo partly drawn)
- survivor count (dose: 0.02 mg/kg/injection, schedule: Q01DX009 (ip), vehicle: saline): 10 of 10
- survivor count (dose: 0.03 mg/kg/injection, schedule: Q01DX009 (ip), vehicle: saline): 10 of 10
- T/C (dose: 0.1 mg/kg/injection, schedule: Q01DX010 (ip), vehicle: water): 109 (4×), 110 [5 of 6 alive], 115, 116, 120, 127 % of control
- T/C (dose: 0.1 mg/kg/injection, schedule: Q01DX015 (ip), vehicle: water): 130 % of control
- T/C (dose: 0.13 mg/kg/injection, schedule: Q01DX005 (ip), vehicle: saline): 126 % of control
- T/C (dose: 0.13 mg/kg/injection, schedule: Q01DX009 (ip), vehicle: saline, evaluated on day 30): 90 and 115 % of control
- T/C (dose: 0.13 mg/kg/injection, schedule: Q01DX009 (ip), vehicle: saline, evaluated on day 35): 136 % of control
- T/C (dose: 0.13 mg/kg/injection, schedule: Q01DX009 (ip), vehicle: saline, evaluated on day 60): 100 and 108 % of control
- T/C (dose: 0.2 mg/kg/injection, schedule: Q01DX009 (ip), vehicle: water, evaluated on day 28): 132 % of control
- T/C (dose: 0.2 mg/kg/injection, schedule: Q01DX009 (ip), vehicle: water, evaluated on day 99): 118, 130, 130 [8 of 10 alive], 130 % of control [9 of 10 alive]
- T/C (dose: 0.2 mg/kg/injection, schedule: Q01DX010 (ip), vehicle: water): 109 (2×), 116, 118 (2×), 120, 120 [5 of 6 alive], 127 [5 of 6 alive], 130 % of control
- T/C (dose: 0.2 mg/kg/injection, schedule: Q01DX015 (ip), vehicle: water): 130 % of control
- T/C (dose: 0.22 mg/kg/injection, schedule: Q01DX005 (ip), vehicle: saline): 126 % of control
- T/C (dose: 0.25 mg/kg/injection, schedule: Q01DX005 (ip), vehicle: saline): 139 % of control
- T/C (dose: 0.25 mg/kg/injection, schedule: Q01DX009 (ip), vehicle: saline, evaluated on day 30): 95 and 115 % of control
- T/C (dose: 0.25 mg/kg/injection, schedule: Q01DX009 (ip), vehicle: saline, evaluated on day 35): 145 % of control
- T/C (dose: 0.25 mg/kg/injection, schedule: Q01DX009 (ip), vehicle: saline, evaluated on day 60): 100 and 112 % of control
- T/C (dose: 0.25 mg/kg/injection, schedule: Q01DX009 (ip), vehicle: water): 112, 114, 115, 123, 125 % of control
- survivor count (dose: 0.25 mg/kg/injection, schedule: Q01DX009 (sc), vehicle: saline): 9 of 10
- survivor count (dose: 0.25 mg/kg/injection, schedule: Q01DX010 (ip), vehicle: saline): 7 of 7
- T/C (dose: 0.25 mg/kg/injection, schedule: Q03HX016 (ip), vehicle: saline): 127 % of control
- T/C (dose: 0.3 mg/kg/injection, schedule: Q01DX010 (ip), vehicle: water): 109, 116, 118 (2×), 118 [5 of 6 alive], 120, 130 (2×), 136 % of control
- T/C (dose: 0.3 mg/kg/injection, schedule: Q01DX015 (ip), vehicle: water): 125 % of control
- T/C [1]: 127, 127 [9 of 10 alive], 130 % of control [9 of 10 alive] (2×)
- survivor count [1]: 6 of 10 and 7 of 9
- T/C (dose: 0.36 mg/kg/injection, schedule: Q01DX005 (ip), vehicle: saline): 132 % of control
- T/C (dose: 0.4 mg/kg/injection, schedule: Q01DX009 (ip), vehicle: other, evaluated on day 5): 131 % of control
- T/C (dose: 0.4 mg/kg/injection, schedule: Q01DX009 (ip), vehicle: other, evaluated on day 23): 131 % of control
- T/C [2]: 144 % of control
- survivor count [2]: 8 of 8
- T/C (dose: 0.4 mg/kg/injection, schedule: Q01DX010 (ip), vehicle: water): 109, 112, 118 (2×), 120, 127, 136, 140 % of control (2×)
- T/C (dose: 0.4 mg/kg/injection, schedule: Q01DX015 (ip), vehicle: water): 130 % of control
- survivor count (dose: 0.5 mg/kg/injection, schedule: Q01DX001 (sc), vehicle: saline): 1 of 10
- T/C (dose: 0.5 mg/kg/injection, schedule: Q01DX009 (ip), vehicle: clinical formulation): 131 % of control [5 of 6 alive]
- T/C (dose: 0.5 mg/kg/injection, schedule: Q01DX009 (ip), vehicle: other, evaluated on day 5): 127 % of control
- T/C (dose: 0.5 mg/kg/injection, schedule: Q01DX009 (ip), vehicle: other, evaluated on day 23): 127 % of control
- T/C (dose: 0.5 mg/kg/injection, schedule: Q01DX009 (ip), vehicle: water, evaluated on day 28): 144 % of control
- T/C (dose: 0.5 mg/kg/injection, schedule: Q01DX009 (ip), vehicle: water, evaluated on day 30): 109, 125, 125 [4 of 6 alive], 126, 149 % of control
- T/C (dose: 0.5 mg/kg/injection, schedule: Q01DX009 (ip), vehicle: water, evaluated on day 99): 136 % of control [8 of 10 alive]
- survivor count (dose: 0.5 mg/kg/injection, schedule: Q01DX009 (ip), vehicle: water): 5 of 10 (2×) and 6 of 10
- survivor count (dose: 0.5 mg/kg/injection, schedule: Q01DX009 (sc), vehicle: saline): 1 of 10
- T/C (dose: 0.5 mg/kg/injection, schedule: Q01DX010 (ip), vehicle: saline): 125 % of control
- T/C (dose: 0.5 mg/kg/injection, schedule: Q01DX010 (ip), vehicle: water): 109, 120, 135, 136, 136 % of control [5 of 6 alive] (2×)
- T/C (dose: 0.5 mg/kg/injection, schedule: Q03HX016 (ip), vehicle: saline): 127 % of control
- T/C (dose: 0.5 mg/kg/injection, schedule: Q04DX003 (ip), vehicle: saline): 127 % of control
- T/C (dose: 0.5 mg/kg/injection, schedule: Q04DX024 (ip), vehicle: saline): 129 % of control
- T/C (dose: 0.6 mg/kg/injection, schedule: Q01DX005 (ip), vehicle: saline): 130 % of control
- T/C (dose: 0.6 mg/kg/injection, schedule: Q01DX009 (ip), vehicle: other, evaluated on day 5): 131 % of control
- T/C (dose: 0.6 mg/kg/injection, schedule: Q01DX009 (ip), vehicle: other, evaluated on day 23): 131 % of control [6 of 8 alive]
- survivor count (dose: 0.6 mg/kg/injection, schedule: Q01DX009 (ip), vehicle: water): 8 of 8
- T/C [3]: 136 % of control [8 of 10 alive]
- survivor count [3]: 1 of 10 (2×), 2 of 10, 4 of 10
- T/C (dose: 0.7 mg/kg/injection, schedule: Q01DX009 (ip), vehicle: water): 141 % of control
- survivor count (dose: 0.8 mg/kg/injection, schedule: Q01DX009 (ip), vehicle: other): 5 of 8
- survivor count (dose: 0.8 mg/kg/injection, schedule: Q01DX009 (ip), vehicle: water): 0 of 10 (2×), 3 of 10, 7 of 10, 7 of 8
- survivor count (dose: 1.0 mg/kg/injection, schedule: Q01DX001 (sc), vehicle: saline): 0 of 10
- survivor count (dose: 1.0 mg/kg/injection, schedule: Q01DX005 (ip), vehicle: clinical formulation): 5 of 8
- T/C [4]: 147 % of control [7 of 8 alive]
- survivor count [4]: 4 of 10
- T/C (dose: 1.0 mg/kg/injection, schedule: Q01DX005 (ip), vehicle: water): 126 % of control
- survivor count (dose: 1.0 mg/kg/injection, schedule: Q01DX009 (ip), vehicle: clinical formulation): 2 of 6 and 4 of 6
- survivor count (dose: 1.0 mg/kg/injection, schedule: Q01DX009 (ip), vehicle: saline): 4 of 10 and 8 of 10
- T/C [5]: 149 % of control [4 of 6 alive]
- survivor count [5]: 3 of 6, 4 of 6, 5 of 6
- survivor count (dose: 1.0 mg/kg/injection, schedule: Q01DX009 (sc), vehicle: saline): 1 of 10
- survivor count (dose: 1.0 mg/kg/injection, schedule: Q01DX010 (ip), vehicle: saline): 6 of 7
- T/C (dose: 1.0 mg/kg/injection, schedule: Q03HX016 (ip), vehicle: saline): 145 % of control
- survivor count (dose: 1.0 mg/kg/injection, schedule: Q04DX024 (ip), vehicle: saline): 10 of 10
- survivor count (dose: 1.67 mg/kg/injection, schedule: Q01DX005 (ip), vehicle: clinical formulation): 2 of 8
- survivor count (dose: 2.0 mg/kg/injection, schedule: Q01DX001 (ip), vehicle: saline): 2 of 10
- survivor count (dose: 2.0 mg/kg/injection, schedule: Q01DX001 (sc), vehicle: saline): 1 of 10
- survivor count (dose: 2.0 mg/kg/injection, schedule: Q01DX005 (ip), vehicle: water): 0 of 5
- survivor count (dose: 2.0 mg/kg/injection, schedule: Q01DX009 (ip), vehicle: clinical formulation): 0 of 6 and 1 of 6
- survivor count (dose: 2.0 mg/kg/injection, schedule: Q01DX009 (ip), vehicle: saline): 3 of 6
- survivor count (dose: 2.0 mg/kg/injection, schedule: Q01DX009 (ip), vehicle: water): 0 of 6, 1 of 6, 2 of 6, 3 of 6
- survivor count (dose: 2.0 mg/kg/injection, schedule: Q01DX009 (sc), vehicle: saline): 0 of 10
- survivor count (dose: 2.0 mg/kg/injection, schedule: Q01DX010 (ip), vehicle: saline): 0 of 7
- survivor count (dose: 2.0 mg/kg/injection, schedule: Q03HX008 (ip), vehicle: saline): 3 of 10
- survivor count (dose: 2.0 mg/kg/injection, schedule: Q03HX016 (ip), vehicle: saline): 7 of 10
- survivor count (dose: 2.0 mg/kg/injection, schedule: Q04DX003 (ip), vehicle: saline): 2 of 10
- survivor count (dose: 2.0 mg/kg/injection, schedule: Q04DX024 (ip), vehicle: saline): 1 of 10
- survivor count (dose: 2.0 mg/kg/injection, schedule: Q08DX002 (ip), vehicle: saline): 3 of 10
- survivor count (dose: 4.0 mg/kg/injection, schedule: Q01DX001 (sc), vehicle: saline): 1 of 10
